Assay results as given in patent publication US20210322520A1, “METHODS OF MODULATING CORTICOSTEROID RESPONSE” (priority 2019, published 2021).
At least one structure is not confirmed: it was looked up by name or label, or the drawing left a doubt.

System: endogenous cortisol production
Experiment: Plasma free and serum total cortisol pharmacodynamics in healthy subjects
Format: in vivo, human
Details: oral methylprednisolone; data not shown

For `C[C@H]1C[C@@H]2[C@H]([C@@H](O)C[C@@]3(C)[C@H]2CC[C@]3(O)C(=O)CO)[C@@]2(C)C=CC(=O)C=C12` [Methylprednisolone, methylprednisolone], the “plasma total and free cortisol concentrations after administration” value was “consistent with its known adrenal suppression”.
